PubChem BioAssay AID504793, Drosophila RNAi Screening Center, 2011

- Test: 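Knock-downs allowing continued mitosis even though DNA is damaged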 (primary screen)
- Cells: Drosophila S2R+ cells
- Knock-down reagent: long dsRNA against Drosophila genes, about 0.25 µg dsRNA per well
- Time to read-out: 4 days of dsRNA, then 4 hours of drug before read-out
- Treatment: doxorubicin 0.5 µM for 4 hours to cause double-strand breaks, in cells also given a low, harmless dose of dsRNA against nbs to sensitise the assay
- Detection: 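Mitotic index as the number of phospho-histone H3-positive cells in each well following doxorubicin, given as raw counts without normalisation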
- Reading the numbers: mitotic cells: higher = more cells in mitosis, weaker G2 arrest
- Hit rule: 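a call needs confirmation in secondary tests, with other dsRNAs and a check of mitotic timing without damage, not just a high primary count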
- Meaning of the calls: active = confirmed in follow-up tests; inactive = not confirmed
In all, the deposit lists about 23,000 reagents; below is an unselected part of those with a known target gene and a result. Of all reagents, 62 (0.27%) got an active call. 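Calls come from follow-up tests whose scores are not deposited, so confirmed genes may have low counts here; counts are not normalised per plate.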 Raw values are not corrected between plates. Entries without a mark were called inactive.

| Gene | amplicon | mitotic cells, replicate 1 |
| --- | --- | --- |
| tbrd-1 | DRSC14601 | 9 |
| Cib2 | DRSC04535 | 7 |
| CG1409 | DRSC17910 | 14 |
| PTP-ER | DRSC04636 | 7 |
| PTP-ER | DRSC23325 | 10 |
| PTP-ER | DRSC28263 | 5 |
| Tsp74F | DRSC10508 | 7 |
| Mdh2 (retired record) | DRSC16361 | 10 |
| CG32023 | DRSC08946 | 12 |
| hll | DRSC01944 | 6 |
| CG5885 | DRSC02910 | 5 |
| CG5885 | DRSC28761 | 4 |
| CG3652 | DRSC00624 | 3 |
| CG8851 | DRSC00718 | 3 |
| CG8851 | DRSC29343 | 3 |
| Gr58c | DRSC04136 | 4 |
| CG13041 | DRSC09922 | 2 |
| CG13041 | DRSC26793 | 4 |
| Ance-3 | DRSC02648 | 8 |
| Ance-3 | DRSC02649 | 7 |
| CG10177 | DRSC14201 | 6 |
| CG10177 | DRSC27888 | 8 |
| CG9184 | DRSC08636 | 16 |
| CG9184 | DRSC22184 | 6 |
| CG9184 | DRSC23765 | 9 |
| Bre1 | DRSC09742 | 3 |
| Obp57e | DRSC05891 | 7 |
| PolrMT | DRSC00660 | 4 |
| CG15544 | DRSC15082 | 16 |
| CG15544 | DRSC25686 | 12 |
| CG33325 | DRSC12699 | 10 |
| Faf2 | DRSC03325 | 2 |
| CG5162 | DRSC19935 | 11 |
| CG18130 | DRSC19790 | 11 |
| CG18130 | DRSC24767 | 6 |
| Osi14 | DRSC12368 | 13 |
| Osi14 | DRSC26397 | 6 |
| RabGGTb | DRSC00804 | 7 |
| RabGGTb | DRSC29549 | 8 |
| Cp19 | DRSC11121 | 3 |
| Cp19 | DRSC28639 | 6 |
| vg | DRSC07715 | 10 |
| vg | DRSC22669 | 7 |
| vg | DRSC29857 | 5 |
| RpL37-2 | DRSC04584 | 2 |

Reprinted from above (6 entries):
| Gene | amplicon | mitotic cells, replicate 1 |
| --- | --- | --- |
| hll | DRSC01944 | 6 |
| CG5885 | DRSC02910 | 5 |
| CG5885 | DRSC28761 | 4 |
| CG3652 | DRSC00624 | 3 |
| CG8851 | DRSC00718 | 3 |
| CG8851 | DRSC29343 | 3 |
